Experiment [1] has as its target cynomolgus monkey LAG-3 on CHO cells (CHO-cynoLAG-3) (cynomolgus monkey). The experiment can be described thus: FACS with FITC-labelled antibody on CHO-cynoLAG-3 cells.
For experiment [2] the target is unchanged. The experiment is described as follows: flow cytometry, FITC-labelled antibody on CHO-cynoLAG-3 cells. On the technique in general: A flow cytometer gives signals particle by particle.

The source of these data is patent publication US20200347131A1.

No constants are given. Whether binding was seen depends on the method and setting. A result given as binding can be weak or reduced; the word gives no strength.

B1: humanized antibody AB12T4 (antibody, human IgG4 S228P, kappa, V domains shown)
VH: DVQLQESGPGLVKPSQTLSLTCTVTGYSITSFYSWHWIRQFPGKGLEWMGCIQYSGDTDSNPSLKSRITITRDTSENQLFLKLSSVTAADTATYYCARSPYDSDPYYVMDYWGQGTLVTVSS
VL: DIVMSQSPDSLAVSLGERITMTCKSSQSLLYSGNQKNYLAWYQQKPGQSPTLLIYWASTRDSGVPDRLTGSGSGTDFTLTISSVQAEDVAVYYCQQYYAYPYTFGQGTKLEIKR
Turning to B1, the binding entry in experiment [1] and in experiment [2] was “binds” in each case.
